Literature values, collected in US8257686B2, “Compositions and methods relating to prevention of chemotherapy-induced alopecia” (HSF Pharmaceuticals S.A., priority 2000, dated 2012).
At least one compound was matched to its structure with a doubt left.

Tested on: chemotherapy-induced hair loss
Settings: review Dorr 1998; Sredni et al. 1996

SMILES: Nc1cc(N2CCCCC2)nc(N)[n+]1[O-] [minoxidil]
- prevention of chemotherapy-induced hair loss: failed
